Test results from patent publication US12703712B2, “Indenonaphthopyrans having trialkylsilyl and ethylenically unsaturated groups” (Transitions Optical, Ltd., priority 2021, dated 2026).

Assay: Colour upon exposure to UV light, compound formulated into a coating composition
Conditions: coating composition as described in Part 2 of U.S. Pat. No. 8,608,988 B2

Structure (SMILES)	Color exhibited upon exposure to UV light
C=C(C)C(=O)OCCOC(=O)CCC(=O)N1CCN(c2ccc(C3(c4ccccc4)C=Cc4c5c(c6cc(N7CCCCC7)c(OC)cc6c4O3)-c3ccccc3C5(C)C)cc2)CC1 (stereo not shown) [CE-2]	purple
C=C(C)C(=O)OCC1CCCN(c2cc3c4c(c5c(c3cc2OC)OC(c2ccccc2)(c2ccc(N3CCOCC3)cc2)C=C5)C(C)(C)c2cc(-c3ccc(C(C)(C)C)cc3)ccc2-4)C1 (stereo not shown) [CE-3, 6-methoxy-7-((3-methacryloxymethyl)piperidin-1-yl)-11-(4-t-butylphenyl)-13,13-dimethyl-3-(4-morpholinophenyl)-3-phenyl-3H,13H-indeno[2′,3′:3,4]naphtho[1,2-b]pyran]	dark purple
C=C(C)C(=O)OCCOC(=O)CCC(=O)N1CCN(c2ccc(C3(c4ccccc4)C=Cc4c5c(c6cc(N7CCCCC7)c(OC)cc6c4O3)-c3ccc([Si](C)(C)C)cc3C5(C)C)cc2)CC1 (stereo not shown) [Example 5]	purple
C=C(C)C(=O)OCC1CCCN(c2cc3c4c(c5c(c3cc2OC)OC(c2ccc(N3CCOCC3)cc2)(c2ccc([Si](C)(C)C)cc2)C=C5)C(C)(C)c2cc(-c3ccc(C(C)(C)C)cc3)ccc2-4)C1 (stereo not shown) [Example 6, 6-methoxy-7-((3-methacryloxymethyl)piperidin-1-yl)-11-(4-t-butylphenyl)-13,13-dimethyl-3-(4-morpholinophenyl)-3-(4-trimethylsilylphenyl)-3H,13H-indeno[2′,3′: 3,4]naphtho[1,2-b]pyran]	dark purple
